In the supplement of paper PMC4604168 (melanoma cell lines):
This is one part of the list. Repeats are few or missing, and single values can be far off.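 The apoptosis fraction was the count of cleaved-PARP antibody-stained nuclei relative to all DNA-stained nuclei, imaged in 1,536-well plates. Screening doses were set so most cells survived, and baseline and induced cleaved-PARP levels vary greatly across cell lines.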

Experiments:
Experiment in all cases: cleaved PARP positive nuclei fraction relative to DMSO control; melanoma cells; higher = more apoptosis
Conditions in all cases: library dose: low library concentration; 72 h
WM115 = test system: WM115
WM1716 = test system: WM1716
WM1745 = test system: WM1745
WM3526 = test system: WM3526
WM3619 = test system: WM3619
WM451Lu = test system: WM451Lu

SMILES	cleaved PARP positive nuclei fraction (WM115)	cleaved PARP positive nuclei fraction (WM1716)	cleaved PARP positive nuclei fraction (WM1745)	cleaved PARP positive nuclei fraction (WM3526)	cleaved PARP positive nuclei fraction (WM3619)	cleaved PARP positive nuclei fraction (WM451Lu)
NC1(c2ccc(-c3nc4ccn5c(=O)[nH]nc5c4cc3-c3ccccc3)cc2)CCC1 + Nc1ncn([C@H]2C[C@H](O)[C@@H](CO)O2)c(=O)n1 [decitabine] (first compound 0.4 µM, partner dose 0.1 µM)	231%	524%	104%	112%	89.1%	115%
CS(=O)(=O)c1ccc(C(=O)Nc2ccc(Cl)c(-c3ccccn3)c2)c(Cl)c1 [vismodegib] + O=c1cc(-c2cccc3c2Sc2ccccc2S3)oc(N2CCOCC2)c1 [KU55933] (first compound 1 µM, partner dose 1 µM)	93.5%	31.4%	85.9%	62.8%	89.2%	138%
Cn1cnc2c(F)c(Nc3ccc(Br)cc3Cl)c(C(=O)NOCCO)cc21 [selumetinib] + O=C(O)[C@@H]1[O][Sb](=[O])([O][Sb]2(=[O])[O][C@H]([C@H](O)CO)[C@H](O)[C@H](C(=O)O)[O]2)[O][C@H]([C@H](O)CO)[C@@H]1O [stibogluconate] (first compound 0.015 µM, partner dose 2 µM)	212%	125%	104%	131%	157%	122%
CC(=O)O[C@@]12CO[C@@H]1C[C@H](O)[C@@]1(C)C(=O)[C@H](O)C3=C(C)[C@@H](OC(=O)[C@H](O)[C@@H](NC(=O)OC(C)(C)C)c4ccccc4)C[C@@](O)([C@@H](OC(=O)c4ccccc4)[C@H]21)C3(C)C [Docetaxel] + Cc1cc(N2CCOCC2)cc2[nH]c(-c3c(NC[C@@H](O)c4cccc(Cl)c4)cc[nH]c3=O)nc12 [BMS536924] (first compound 0.0001 µM, partner dose 0.2 µM)	320%	403%	229%	174%	136%	100%
NC1(c2ccc(-c3nc4ccn5c(=O)[nH]nc5c4cc3-c3ccccc3)cc2)CCC1 + COc1cc2ncnc(Nc3ccc(Oc4ccccc4)cc3)c2cc1OC [SrcI1] (first compound 0.4 µM, partner dose 2 µM)	188%	418%	110%	127%	113%	80.1%
NC1(c2ccc(-c3nc4ccn5c(=O)[nH]nc5c4cc3-c3ccccc3)cc2)CCC1 + N#Cc1c(O)c2c(-c3ccc(-c4ccccc4O)cc3)csc2[nH]c1=O [A769662] (first compound 0.4 µM, partner dose 2 µM)	250%	66.5%	84.6%	185%	74.2%	70.2%
COc1ccc(C2=N[C@@H](c3ccc(Cl)cc3)[C@@H](c3ccc(Cl)cc3)N2C(=O)N2CCNC(=O)C2)c(OC(C)C)c1 [Nutlin-3] + O=C1NC(=O)/C(=C/c2ccc(-c3ccc(F)cc3O)o2)S1 [AS252424] (first compound 0.1 µM, partner dose 1 µM)	142%	251%	85.8%	53.4%	130%	76.3%
C[C@@H](N)c1ccc(C(=O)Nc2ccnc3[nH]ccc23)cc1 + Nc1ccn([C@@H]2O[C@H](CO)[C@@H](O)C2(F)F)c(=O)n1 [gemcitabine] (first compound 0.4 µM, partner dose 0.0004 µM)	73.3%	48.1%	131%	70.7%	126%	74.2%
CCN(CC)CCNC(=O)c1c(C)[nH]c(/C=C2\C(=O)Nc3ccc(F)cc32)c1C [sunitinib] + Cc1ccc(NC(=O)c2cccc(N(C)C)c2)cc1NC(=O)c1ccc(O)cc1 [ZM336372] (first compound 0.4 µM, partner dose 2 µM)	136%	48.6%	106%	188%	105%	50.1%
NC1(c2ccc(-c3nc4ccn5c(=O)[nH]nc5c4cc3-c3ccccc3)cc2)CCC1 + C#Cc1cccc(Nc2ncnc3cc(OCCOC)c(OCCOC)cc23)c1 [erlotinib] (first compound 0.4 µM, partner dose 0.8 µM)	227%	52.1%	115%	58.9%	87.1%	32.1%
C[C@]1(O)C[C@@H](c2nc(-c3ccc4ccc(-c5ccccc5)nc4c3)c3c(N)nccn32)C1 + O=C(O)[C@@H]1[O][Sb](=[O])([O][Sb]2(=[O])[O][C@H]([C@H](O)CO)[C@H](O)[C@H](C(=O)O)[O]2)[O][C@H]([C@H](O)CO)[C@@H]1O [stibogluconate] (first compound 0.4 µM, partner dose 2 µM)	73.8%	220%	126%	50%	106%	96.8%
